The M2OR odorant receptor database
This is a selection; strong and weak results do not stand in their true shares. Calls are pooled over several reports, among them a noisy single-well screen. The list shows a part of the results.

By UniProt entry, the sequences of proteins in these tests, tags left out. Where a name states a change or a piece, a line headed by the entry shows the natural chain unless it says otherwise.
UniProt Q9H342: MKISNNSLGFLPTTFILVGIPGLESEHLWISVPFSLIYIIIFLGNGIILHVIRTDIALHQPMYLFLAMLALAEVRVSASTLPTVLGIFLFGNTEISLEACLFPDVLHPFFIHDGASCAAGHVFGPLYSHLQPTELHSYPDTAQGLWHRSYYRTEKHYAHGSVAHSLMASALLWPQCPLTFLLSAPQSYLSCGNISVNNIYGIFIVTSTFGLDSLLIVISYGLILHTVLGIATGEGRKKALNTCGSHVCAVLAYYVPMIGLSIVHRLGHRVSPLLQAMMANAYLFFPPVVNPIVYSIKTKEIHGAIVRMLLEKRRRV
UniProt Q9H2C8: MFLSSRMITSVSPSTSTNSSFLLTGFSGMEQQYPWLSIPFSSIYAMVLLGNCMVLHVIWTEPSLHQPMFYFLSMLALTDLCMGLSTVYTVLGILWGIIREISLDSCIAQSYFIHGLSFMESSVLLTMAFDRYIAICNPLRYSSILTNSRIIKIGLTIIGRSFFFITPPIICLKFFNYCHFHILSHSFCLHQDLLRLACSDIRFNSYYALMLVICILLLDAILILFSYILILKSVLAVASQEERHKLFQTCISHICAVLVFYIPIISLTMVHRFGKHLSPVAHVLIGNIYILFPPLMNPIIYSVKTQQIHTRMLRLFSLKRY
UniProt Q8NGJ4: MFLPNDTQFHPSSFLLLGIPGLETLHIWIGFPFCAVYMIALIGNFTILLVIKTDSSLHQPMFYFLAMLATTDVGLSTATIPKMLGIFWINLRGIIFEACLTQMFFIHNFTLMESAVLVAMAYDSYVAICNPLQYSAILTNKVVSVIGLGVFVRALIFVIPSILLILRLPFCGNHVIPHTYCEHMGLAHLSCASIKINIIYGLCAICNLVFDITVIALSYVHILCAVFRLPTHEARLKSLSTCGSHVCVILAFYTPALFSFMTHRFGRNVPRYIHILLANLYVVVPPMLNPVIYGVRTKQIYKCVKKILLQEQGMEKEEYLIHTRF
UniProt Q8NGH9: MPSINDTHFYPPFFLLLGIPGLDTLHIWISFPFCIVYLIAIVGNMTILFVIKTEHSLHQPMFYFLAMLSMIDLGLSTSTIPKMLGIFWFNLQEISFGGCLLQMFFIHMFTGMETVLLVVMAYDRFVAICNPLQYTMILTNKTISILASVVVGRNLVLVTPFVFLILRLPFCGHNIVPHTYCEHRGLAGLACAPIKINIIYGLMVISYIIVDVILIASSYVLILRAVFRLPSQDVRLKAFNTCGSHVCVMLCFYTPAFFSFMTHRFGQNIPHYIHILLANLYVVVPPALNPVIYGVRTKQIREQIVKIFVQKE
UniProt Q8NH55: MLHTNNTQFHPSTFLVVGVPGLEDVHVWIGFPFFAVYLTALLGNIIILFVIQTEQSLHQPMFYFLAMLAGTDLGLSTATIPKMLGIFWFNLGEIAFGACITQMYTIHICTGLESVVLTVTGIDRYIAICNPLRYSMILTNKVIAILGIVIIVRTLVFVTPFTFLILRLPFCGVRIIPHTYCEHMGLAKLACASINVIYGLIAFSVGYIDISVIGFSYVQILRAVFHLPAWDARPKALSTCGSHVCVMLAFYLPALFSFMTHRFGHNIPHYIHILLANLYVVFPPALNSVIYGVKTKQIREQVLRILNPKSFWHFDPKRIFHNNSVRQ

Legend:
Settings in all cases: stereoisomer not certain
OR51I1 (Homo sapiens) = biological target: T1, OR51I1 (Homo sapiens) (UniProt Q9H343)
T1 sequence (whole entry): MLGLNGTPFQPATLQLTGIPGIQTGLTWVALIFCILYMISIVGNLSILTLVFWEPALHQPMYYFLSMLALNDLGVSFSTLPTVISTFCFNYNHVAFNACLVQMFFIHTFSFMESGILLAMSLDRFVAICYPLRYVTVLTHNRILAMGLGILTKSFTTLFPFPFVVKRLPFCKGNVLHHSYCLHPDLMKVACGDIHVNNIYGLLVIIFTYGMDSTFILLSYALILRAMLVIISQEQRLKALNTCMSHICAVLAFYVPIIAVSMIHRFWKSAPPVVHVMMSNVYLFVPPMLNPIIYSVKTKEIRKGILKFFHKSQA
Summary of the method: (§1)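 Whether a receptor–molecule pair is responsive (active) rests on the original authors' judgment that its measured signal was statistically different from baseline. Pairs without that judgment are non-responsive (inactive). Sources used varied assay methods, commonly transient luciferase assays in mammalian cell lines.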

OR51I2 (Homo sapiens) = biological target: T2, OR51I2 (Homo sapiens) (UniProt Q9H344)
T2 sequence (whole entry): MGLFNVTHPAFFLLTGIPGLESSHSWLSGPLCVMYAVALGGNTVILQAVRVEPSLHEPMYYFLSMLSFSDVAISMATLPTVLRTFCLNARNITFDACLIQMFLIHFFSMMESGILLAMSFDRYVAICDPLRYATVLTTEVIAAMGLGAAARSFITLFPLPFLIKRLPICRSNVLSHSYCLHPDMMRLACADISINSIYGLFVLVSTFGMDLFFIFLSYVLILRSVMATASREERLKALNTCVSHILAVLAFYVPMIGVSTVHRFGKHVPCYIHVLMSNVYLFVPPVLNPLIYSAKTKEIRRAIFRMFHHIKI
Summary of the method: as §1

OR51L1 (Homo sapiens) = biological target: T3, OR51L1 (Homo sapiens) (UniProt Q8NGJ5)
T3 sequence (whole entry): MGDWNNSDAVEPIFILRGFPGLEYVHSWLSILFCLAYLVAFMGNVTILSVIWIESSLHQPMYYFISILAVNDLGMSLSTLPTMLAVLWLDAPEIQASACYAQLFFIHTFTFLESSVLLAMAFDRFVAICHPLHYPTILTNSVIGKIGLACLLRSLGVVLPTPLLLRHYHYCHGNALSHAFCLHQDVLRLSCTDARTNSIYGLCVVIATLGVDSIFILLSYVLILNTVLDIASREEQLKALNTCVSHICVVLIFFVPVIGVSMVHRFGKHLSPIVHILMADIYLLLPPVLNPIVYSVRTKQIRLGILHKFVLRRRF
Summary of the method: as §1

OR51S1 (Homo sapiens) = biological target: T4, OR51S1 (Homo sapiens) (UniProt Q8NGJ8)
T4 sequence (whole entry): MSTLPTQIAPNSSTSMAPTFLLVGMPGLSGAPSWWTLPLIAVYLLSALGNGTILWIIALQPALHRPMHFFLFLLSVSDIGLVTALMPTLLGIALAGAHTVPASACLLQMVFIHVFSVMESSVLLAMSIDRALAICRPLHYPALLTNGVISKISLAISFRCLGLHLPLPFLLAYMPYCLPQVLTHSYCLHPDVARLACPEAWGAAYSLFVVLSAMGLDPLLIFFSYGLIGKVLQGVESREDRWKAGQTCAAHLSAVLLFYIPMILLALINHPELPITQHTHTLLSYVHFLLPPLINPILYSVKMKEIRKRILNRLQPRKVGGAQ
Summary of the method: as §1

OR52A4P (Homo sapiens) = biological target: T5, OR52A4P (Homo sapiens) (UniProt A6NMU1)
T5 sequence (whole entry): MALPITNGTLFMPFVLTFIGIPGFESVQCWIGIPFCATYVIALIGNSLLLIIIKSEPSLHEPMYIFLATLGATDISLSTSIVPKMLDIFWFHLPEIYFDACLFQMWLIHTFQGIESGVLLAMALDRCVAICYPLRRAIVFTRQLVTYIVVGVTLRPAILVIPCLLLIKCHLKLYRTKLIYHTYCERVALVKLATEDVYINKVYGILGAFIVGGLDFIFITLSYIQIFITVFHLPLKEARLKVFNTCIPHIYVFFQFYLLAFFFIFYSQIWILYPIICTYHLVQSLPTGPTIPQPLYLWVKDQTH
Summary of the method: as §1

OR52A5 (Homo sapiens) = biological target: T6, OR52A5 (Homo sapiens) (UniProt Q9H2C5)
T6 sequence (whole entry): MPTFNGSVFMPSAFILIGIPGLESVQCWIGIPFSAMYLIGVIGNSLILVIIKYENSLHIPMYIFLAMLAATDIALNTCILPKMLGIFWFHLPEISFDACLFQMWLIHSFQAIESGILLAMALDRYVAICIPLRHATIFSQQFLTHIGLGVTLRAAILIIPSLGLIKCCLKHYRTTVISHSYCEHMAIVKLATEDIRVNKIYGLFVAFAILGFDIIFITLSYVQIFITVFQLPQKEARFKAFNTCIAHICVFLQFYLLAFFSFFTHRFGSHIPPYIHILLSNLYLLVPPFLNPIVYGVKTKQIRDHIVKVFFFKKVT
Summary of the method: as §1

OR52B4 (Homo sapiens) = biological target: T7, OR52B4 (Homo sapiens) (UniProt Q8NGK2)
T7 sequence (whole entry): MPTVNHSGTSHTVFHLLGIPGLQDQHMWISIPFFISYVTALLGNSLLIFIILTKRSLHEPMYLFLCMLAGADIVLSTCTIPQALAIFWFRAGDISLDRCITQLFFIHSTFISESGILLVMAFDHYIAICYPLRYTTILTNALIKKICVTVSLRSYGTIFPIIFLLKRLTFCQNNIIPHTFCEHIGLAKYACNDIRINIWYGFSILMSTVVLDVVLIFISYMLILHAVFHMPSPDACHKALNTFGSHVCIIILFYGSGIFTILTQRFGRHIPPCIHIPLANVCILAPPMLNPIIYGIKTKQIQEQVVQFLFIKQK
Summary of the method: as §1

OR52D1 (Homo sapiens) = biological target: T8, OR52D1 (Homo sapiens) (UniProt Q9H346)
T8 sequence (whole entry): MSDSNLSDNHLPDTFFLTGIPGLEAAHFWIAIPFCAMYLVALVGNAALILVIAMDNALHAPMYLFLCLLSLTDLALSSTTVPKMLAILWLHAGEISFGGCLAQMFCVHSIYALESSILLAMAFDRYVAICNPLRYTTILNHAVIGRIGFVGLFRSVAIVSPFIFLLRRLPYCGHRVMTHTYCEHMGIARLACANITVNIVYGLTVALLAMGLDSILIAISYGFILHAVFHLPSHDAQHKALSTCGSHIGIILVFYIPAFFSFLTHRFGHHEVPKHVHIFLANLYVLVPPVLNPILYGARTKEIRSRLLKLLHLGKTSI
Summary of the method: as §1

OR51J1 (Homo sapiens) = OR51J1 (Homo sapiens) (UniProt Q9H342)
Summary of the method: as §1

OR51M1 (Homo sapiens) = biological target: T9, OR51M1 (Homo sapiens) (UniProt Q9H341)
T9 sequence (whole entry): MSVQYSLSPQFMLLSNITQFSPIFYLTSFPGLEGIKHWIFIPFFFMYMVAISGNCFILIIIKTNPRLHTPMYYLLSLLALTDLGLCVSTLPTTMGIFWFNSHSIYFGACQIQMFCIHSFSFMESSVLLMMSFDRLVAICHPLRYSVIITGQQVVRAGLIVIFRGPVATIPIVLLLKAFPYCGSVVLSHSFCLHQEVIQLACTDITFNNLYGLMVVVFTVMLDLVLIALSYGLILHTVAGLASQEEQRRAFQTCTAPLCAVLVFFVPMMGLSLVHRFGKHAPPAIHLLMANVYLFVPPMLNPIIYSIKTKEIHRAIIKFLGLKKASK
Summary of the method: as §1

OR51Q1 (Homo sapiens) = biological target: T10, OR51Q1 (Homo sapiens) (UniProt Q8NH59)
T10 sequence (whole entry): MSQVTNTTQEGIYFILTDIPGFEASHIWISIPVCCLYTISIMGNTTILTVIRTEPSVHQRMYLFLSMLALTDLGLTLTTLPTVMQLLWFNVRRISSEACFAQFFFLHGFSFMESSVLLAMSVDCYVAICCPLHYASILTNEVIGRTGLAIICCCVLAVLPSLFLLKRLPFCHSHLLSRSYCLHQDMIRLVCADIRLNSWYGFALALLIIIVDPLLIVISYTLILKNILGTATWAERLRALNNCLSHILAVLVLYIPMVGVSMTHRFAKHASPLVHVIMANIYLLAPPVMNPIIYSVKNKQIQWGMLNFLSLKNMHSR
Summary of the method: as §1

OR51T1 (Homo sapiens) = biological target: T11, OR51T1 (Homo sapiens) (UniProt Q8NGJ9)
T11 sequence (whole entry): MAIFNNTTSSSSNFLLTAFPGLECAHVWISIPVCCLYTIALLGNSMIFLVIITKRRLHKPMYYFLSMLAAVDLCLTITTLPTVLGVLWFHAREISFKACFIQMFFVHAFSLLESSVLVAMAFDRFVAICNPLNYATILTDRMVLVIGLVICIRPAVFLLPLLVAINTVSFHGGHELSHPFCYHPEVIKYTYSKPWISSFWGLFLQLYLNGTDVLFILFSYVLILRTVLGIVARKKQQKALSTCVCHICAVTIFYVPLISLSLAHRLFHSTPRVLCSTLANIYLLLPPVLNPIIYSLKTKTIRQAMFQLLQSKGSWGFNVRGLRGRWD
Summary of the method: as §1

OR51V1 (Homo sapiens) = OR51V1 (Homo sapiens) (UniProt Q9H2C8)
Summary of the method: as §1

OR52A1 (Homo sapiens) = biological target: T12, OR52A1 (Homo sapiens) (UniProt Q9UKL2)
T12 sequence (whole entry): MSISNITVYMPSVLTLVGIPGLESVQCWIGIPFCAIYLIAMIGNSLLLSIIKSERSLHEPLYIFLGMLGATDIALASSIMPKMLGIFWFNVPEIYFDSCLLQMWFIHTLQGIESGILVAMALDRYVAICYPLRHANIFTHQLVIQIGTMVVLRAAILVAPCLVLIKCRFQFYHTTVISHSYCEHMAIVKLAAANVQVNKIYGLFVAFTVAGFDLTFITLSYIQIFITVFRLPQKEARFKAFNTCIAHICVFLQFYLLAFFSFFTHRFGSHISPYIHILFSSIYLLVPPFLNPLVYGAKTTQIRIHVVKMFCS
Summary of the method: as §1

OR52B2 (Homo sapiens) = biological target: T13, OR52B2 (Homo sapiens) (UniProt Q96RD2)
T13 sequence (whole entry): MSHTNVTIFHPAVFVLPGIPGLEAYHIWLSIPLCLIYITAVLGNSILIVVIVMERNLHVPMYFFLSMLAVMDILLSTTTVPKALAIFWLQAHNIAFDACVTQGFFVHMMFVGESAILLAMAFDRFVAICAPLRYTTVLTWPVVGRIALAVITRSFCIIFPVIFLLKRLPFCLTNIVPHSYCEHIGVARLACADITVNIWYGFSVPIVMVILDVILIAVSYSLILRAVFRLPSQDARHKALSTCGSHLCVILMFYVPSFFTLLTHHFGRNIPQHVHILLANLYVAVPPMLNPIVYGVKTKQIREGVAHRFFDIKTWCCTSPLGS
Summary of the method: as §1

OR52B6 (Homo sapiens) = biological target: T14, OR52B6 (Homo sapiens) (UniProt Q8NGF0)
T14 sequence (whole entry): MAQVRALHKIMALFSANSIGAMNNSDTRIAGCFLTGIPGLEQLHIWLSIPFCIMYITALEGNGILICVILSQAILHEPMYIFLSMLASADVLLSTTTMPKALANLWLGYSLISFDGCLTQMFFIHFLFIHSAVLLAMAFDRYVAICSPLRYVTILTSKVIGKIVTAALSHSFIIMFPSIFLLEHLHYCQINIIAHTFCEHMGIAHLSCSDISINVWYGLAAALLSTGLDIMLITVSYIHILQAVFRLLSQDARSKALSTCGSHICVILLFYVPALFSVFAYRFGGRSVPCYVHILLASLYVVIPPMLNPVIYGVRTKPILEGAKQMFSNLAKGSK
Summary of the method: as §1

OR52E2 (Homo sapiens) = OR52E2 (Homo sapiens) (UniProt Q8NGJ4)
Summary of the method: as §1

OR52E4 (Homo sapiens) = OR52E4 (Homo sapiens) (UniProt Q8NGH9)
Summary of the method: as §1

OR52E5 (Homo sapiens) = OR52E5 (Homo sapiens) (UniProt Q8NH55)
Summary of the method: as §1

Measured: odorant receptor agonist call;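 note: active if original authors judged signal statistically different from baseline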

CC(C)C(=O)O
inactive: OR51I1 (Homo sapiens) | OR51I2 (Homo sapiens) | OR51L1 (Homo sapiens) | OR51S1 (Homo sapiens) | OR52A4P (Homo sapiens) | OR52A5 (Homo sapiens) | OR52B4 (Homo sapiens)
active: OR52D1 (Homo sapiens)

C=CCc1ccc(OC(C)=O)c(OC)c1
inactive: OR51I2 (Homo sapiens) | OR51L1 (Homo sapiens) | OR52B4 (Homo sapiens) | OR52D1 (Homo sapiens)
active: OR51I1 (Homo sapiens) | OR51S1 (Homo sapiens) | OR52A4P (Homo sapiens) | OR52A5 (Homo sapiens)

CC(=O)C(C)=O
inactive: all assays above
